One assay concerns the target human FSH receptor (Homo sapiens, UniProt P23945). The assay can be described thus: hFSHR CHO cAMP assay (rhFSHR-cLUC cells, FSH-stimulated cAMP, radioimmunoassay). The conditions noted are these: read-out: EC50 hFSHR CHO cAMP; inhibition of cAMP produced by EC70 dose of FSH (4.85 nM); maximum concentration 50 μM. An excerpt: Minimum Essential Medium-Alpha (MEM-alpha), fetal bovine serum (FBS), penicillin, streptomycin, geneticin, trypsin-EDTA, Hanks' Balanced Salt Solution (no Calcium chloride, Magnesium chloride, Magnesium sulfate, or phenol red; Ca-Mg free HBSS) were purchased from Gibco BRL (Gaithersburg, Md.). The cells used for the FSH bioassay (rhFSHR-cLUC) were Chinese Hamster Ovary cells (K-1; ATCC) stably transformed with human FSH receptor (pSVK-FSHr) and a cAMP luciferase reporter gene (responsive CGα-180LUC). Follicle Stimulating Hormone (Metrodin; Fertinex) was purchased from Serono, Ltd. (Norwell, Mass.).
The rhFSHR-cLUC cell cultures were maintained in MEM-Alpha supplemented with 10% heat-inactivated FBS (HIFBS), 100 U/ml penicillin, 100 μg/mL streptomycin, and included 0.1 g/L geneticin for stable cell selection.
Forty-eight hours after the cells were plated in sterile 96-well culture plates (Corning, Corning, N.Y.) the spent media was removed and 50 μl assay media (modified growth media with 2% HIFBS) containing 2 mM IBMX (3-isobutyl-1-methyl-xanthine) was added to the cells. Compounds (25 μl) in the appropriate concentration were added followed 5 minutes later by an EC70 dose of FSH (25 μl; 160 ng/ml; 4.85 nM). After 10 minutes @ 22.5° C. (room temperature) the reaction was terminated by addition of 25 μL 0.5 N hydrochloric acid to each well. The amount of cAMP produced was measured by radioimmunoassay in a FlashPlate (DuPont, Boston, Mass.). To each flash plate 60 μL flash plate buffer was added followed by 40 μL acidified cell sample or cAMP standard, followed with the addition of 100 μl ^125l-cAMP trace. The FlashPlates were sealed, incubated overnight @ room temperature, and counted in a Packard TopCount (Packard Instrument Co., Meriden, Conn.). The cAMP radioimmunoassay results were calculated using DPM conversion and log-logit transformation of % binding (Excel program).
(§1) Test compounds were solubilized in 30% dimethyl sulfoxide (DMSO) at a concentration of 10 mM before diluting to appropriate concentrations in assay medium. The final DMSO concentration in the treated cells and in the control cells was 0.75%.
For individual experiments, a set of samples were tested including a vehicle control (assay buffer), a reference compound (hFSH) at a range of concentrations designed to elicit a minimal to maximal response, and several concentrations of test compounds together with an EC70 concentration of standard (hFSH challenge). Each compound was performed in duplicates for the primary evaluation and quadruplicates for the dose-ranging experiments. The cAMP radioimmunoassay raw data (pmol) were calculated to provide average pmol cAMP produced/ml and the percent inhibition was calculated as shown below.
% Inh=[1−(Avg.pmoltest compound+standard)/(Avg.pmolstandard)]×100
EC50 values were calculated from an analysis of the concentration-inhibition data using a linear analysis of the data transformed to a log-logit format.
(In general: Cyclic AMP is a second messenger, typically raised through Gs and lowered through Gi signalling.)

The chains behind the UniProt entries cited, without tags or fusion partners. Residues count along the entry.
UniProt P23945, 18-695 limits assumed: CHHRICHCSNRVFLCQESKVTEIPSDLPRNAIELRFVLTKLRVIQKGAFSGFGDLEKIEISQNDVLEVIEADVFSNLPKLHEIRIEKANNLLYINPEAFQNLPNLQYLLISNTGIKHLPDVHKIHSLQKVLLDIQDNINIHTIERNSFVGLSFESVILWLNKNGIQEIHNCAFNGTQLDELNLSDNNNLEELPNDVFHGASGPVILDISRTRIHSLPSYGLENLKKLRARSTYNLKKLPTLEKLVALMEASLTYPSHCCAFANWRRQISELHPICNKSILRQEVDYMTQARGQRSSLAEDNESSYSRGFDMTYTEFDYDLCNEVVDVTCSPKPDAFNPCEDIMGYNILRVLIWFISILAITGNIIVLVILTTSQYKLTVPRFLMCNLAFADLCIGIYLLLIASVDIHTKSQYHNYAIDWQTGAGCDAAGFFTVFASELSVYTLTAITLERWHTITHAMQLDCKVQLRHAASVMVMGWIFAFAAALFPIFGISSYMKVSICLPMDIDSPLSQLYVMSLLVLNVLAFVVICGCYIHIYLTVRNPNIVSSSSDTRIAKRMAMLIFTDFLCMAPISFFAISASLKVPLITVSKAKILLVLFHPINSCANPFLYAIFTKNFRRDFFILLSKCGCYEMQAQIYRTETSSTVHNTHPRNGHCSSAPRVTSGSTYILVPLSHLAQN

Another assay concerns Rat Granulosa Cell. The assay can be described thus: Rat granulosa cell FSH-stimulated cAMP production. The conditions noted are these: read-out: Rat Granulosa Cell EC50 cAMP; inhibition of cAMP produced by EC70 dose of FSH (1.4 nM); maximum concentration 50 μM. As for the experimental part:
Insulin, diethylstilbesterol, androstenedione, forskolin and DMSO were purchased from Sigma (St. Louis, Mo.). Fungizone, penicillin/streptomycin, charcoal-treated heat inactivated fetal bovine serum (CT-HI-FBS) and Dulbecco's Modified Eagle Medium:Hams F12 medium containing 15 mM Hepes and L-glutamine (DMEM:F12), were purchased from GIBCO BRL (Grand Island, N.Y.).
Ovine FSH (NIADDK-oFSH-17; FSH potency=20 NIH-FSH-S1 U/mg; LH contamination=0.04 times NIH-LH-S1) was received from Ogden Bioservices Corporation, Rockville, Md. Human FSH (Fertinex), was purchased from Serono Pharmaceutical (Framingham, Mass.). Human chorionic gonadotropin (hCG) was purchased from Sigma (St Louis, Mo.).
Immature intact female rats (Wistar-derived strain; 21-23 days old) were implanted with a single pellet (Innovative Research of America, Sarasota, Fla.) containing 2.5 mg diethylstilbesterol (DES) for 3 days. On the third day, the animals were sacrificed, the ovaries were removed, and the granulosa cells were isolated essentially as described in Haynes-Johnson et al., Biol. Reprod., 61 (1), 147-153, (1999). Granulosa cells were plated at a density of 300,000 cells per ml with 0.2 ml added to each well of 96 well culture dishes (Corning, N.Y.). Cultures were incubated at 37° C. in a humidified incubator (95% air, 5% CO2) overnight (18 hours).
Androstenedione (100,000X) was prepared by dissolving the steroid in 100% ethanol, and was subsequently diluted to a final concentration of 10^−7M containing 0.1% ethanol in assay media. The assay media was serum-free, DES-free, insulin-free media, prepared by adding 5 mL pen-strep,1.5 mL fungizone and 5 μL androstenedione to 493.5 mL DMEM F-12 media.
as §1
Test plates containing the granulosa cells were preincubated for 18 hours at 37° C. with 95% air, 5% CO2, 100% humidity. The spent media was removed and 50 μl assay media (DMEM:F12) containing 2 mM IBMX (3-isobutyl-1-methyl-xanthine) was added to the cells. Compounds (25 μl) in the appropriate concentration were added followed 5 minutes later by an EC70 dose of FSH (25 μl; 50 ng/ml; 1.4 nM). After 30 minutes @ 22.5° C. (room temperature) the reaction was terminated by addition of 25 μL 0.5 N hydrochloric acid to each well. The amount of cAMP produced was measured by radioimmunoassay in a FlashPlate (DuPont, Boston, Mass.). To each flash plate 60 μL flash plate buffer was added followed by 40 μL acidified cell sample or cAMP standard, followed with the addition of 100 μl ^125l-cAMP trace. The FlashPlates were sealed, incubated overnight @ room temperature, and counted in a Packard TopCount (Packard Instrument Co., Meriden, Conn.). The cAMP radioimmunoassay results were calculated using DPM conversion and log-logit transformation of % binding (Excel program).

Structures were worked out from names or drawings and are uncertain.

A word on the EC50: it is the concentration giving half of the maximal effect. Consider `COC(CN(CC(=O)NCCCCCCN)S(=O)(=O)c1ccc(-c2ccccc2Cl)cc1)c1ccccc1` (stereo not shown), for which the concentration giving a half-maximal response (EC50) at human FSH receptor turned out to be 0.13 µM. In the case of `COc1ccc(S(=O)(=O)N(CC(=O)NCc2ccc(CN)cc2)C[C@H](C)c2ccccc2)cc1`, the EC50 at human FSH receptor amounted to 1.27 µM.

As for `COc1ccccc1CCN(CC(=O)NCc1cccc(CN)c1)S(=O)(=O)c1ccc(-c2ccccc2Cl)cc1`, the EC50 at human FSH receptor turned out to be 18.2 µM. Turning to `C[C@@H](CN(CC(=O)NCc1cccc(CN)c1)S(=O)(=O)c1ccc(-c2cccc(F)c2)cc1)c1ccccc1`, the half-maximal effective concentration (EC50) at human FSH receptor came out at 0.26 µM. Still for that read-out and setting: with `Cc1ccccc1CCN(CC(=O)NCc1ccc(CN)cc1)S(=O)(=O)c1ccc(-c2ccccc2Cl)cc1` the figure was 0.21 µM.

As to `NCc1ccc(CNC(=O)CN(CCc2cccc(C(F)(F)F)c2)S(=O)(=O)c2ccc(-c3ccccc3)cc2)cc1`, the concentration for a half-maximal effect (EC50) on human FSH receptor turned out to be 0.36 µM.

Take `COc1ccc(-c2ccc(S(=O)(=O)N(CC(=O)N[C@H]3CC[C@H](N)CC3)Cc3ccccc3OC)cc2)cc1` (relative stereo): the EC50 at human FSH receptor was determined as 7.83 µM; with Rat Granulosa Cell, 1.6 µM. As to `COc1ccc(-c2ccc(S(=O)(=O)N(CCc3ccccc3OC)CC(=O)N[C@H]3CC[C@H](N)CC3)cc2)cc1` (relative stereo), the values for the EC50 at human FSH receptor and with Rat Granulosa Cell were 3.68 µM and 0.59 µM, respectively.

`COc1cccc(-c2ccc(S(=O)(=O)N(CC(=O)N[C@H]3CC[C@H](N)CC3)Cc3ccccc3OC)cc2)c1` (relative stereo): the EC50 on human FSH receptor is at least 50 µM; with Rat Granulosa Cell, 3.08 µM. In the case of `COc1ccccc1CCN(CC(=O)N[C@H]1CC[C@H](N)CC1)S(=O)(=O)c1ccc(-c2ccc(C)cc2)cc1` (relative stereo), the EC50 on human FSH receptor turned out to be 4.99 µM; in the assay with Rat Granulosa Cell it was 0.32 µM.

For `COc1ccccc1CCN(CC(=O)N[C@H]1CC[C@H](N)CC1)S(=O)(=O)c1ccc(-c2ccc(F)cc2)cc1` (relative stereo), the concentration giving a half-maximal response (EC50) on human FSH receptor came out at 4.31 µM; in the assay with Rat Granulosa Cell, 0.55 µM. Consider `COc1ccccc1CCN(CC(=O)N[C@H]1CC[C@H](N)CC1)S(=O)(=O)c1ccc(-c2cccc(OC)c2OC)cc1` (relative stereo), for which the half-maximal effective concentration (EC50) at human FSH receptor turned out to be 6.04 µM; with Rat Granulosa Cell, 0.43 µM.

Take `COc1ccccc1CCN(CC(=O)N[C@H]1CC[C@H](N)CC1)S(=O)(=O)c1ccc(-c2cccc3ccccc23)cc1` (relative stereo): the EC50 came out at 4.89 µM at human FSH receptor and 25.1 µM with Rat Granulosa Cell. For `COc1ccccc1CCN(CC(=O)N[C@H]1CC[C@H](N)CC1)S(=O)(=O)c1ccc(-c2ccccc2Cl)cc1` (relative stereo), in that order: 3.98 µM and 0.17 µM. As for `COc1ccccc1CCN(CC(=O)N[C@H]1CC[C@H](N)CC1)S(=O)(=O)c1ccc(-c2ccccc2OC)cc1` (relative stereo), the EC50 at human FSH receptor was determined as 8.23 µM; with Rat Granulosa Cell, 3.09 µM.

Take `COc1ccccc1CN(CC(=O)N[C@H]1CC[C@H](N)CC1)S(=O)(=O)c1ccc(-c2c(C)noc2C)cc1` (relative stereo): the 50% effective concentration (EC50) stood at 12.2 µM at human FSH receptor and 0.14 µM with Rat Granulosa Cell. For `COc1ccccc1CN(CC(=O)N[C@H]1CC[C@H](N)CC1)S(=O)(=O)c1ccc(-c2ccc(C#N)cc2)cc1` (relative stereo), the concentration giving a half-maximal response (EC50) at human FSH receptor was at least 50 µM; in the assay with Rat Granulosa Cell, 0.9 µM.

For the molecule `COc1ccccc1CN(CC(=O)N[C@H]1CC[C@H](N)CC1)S(=O)(=O)c1ccc(-c2ccc(C)cc2)cc1` (relative stereo), the EC50 on human FSH receptor is 3.06 µM; with Rat Granulosa Cell, 0.23 µM. As for `COc1ccccc1CN(CC(=O)N[C@H]1CC[C@H](N)CC1)S(=O)(=O)c1ccc(-c2ccc(Cl)cc2)cc1` (relative stereo), the values for the EC50 on human FSH receptor and with Rat Granulosa Cell were 7.4 µM and 0.19 µM, respectively.

`COc1ccccc1CN(CC(=O)N[C@H]1CC[C@H](N)CC1)S(=O)(=O)c1ccc(-c2ccc(F)cc2)cc1` (relative stereo): the EC50 stood at 6.86 µM on human FSH receptor and 0.44 µM with Rat Granulosa Cell. In the case of `COc1ccccc1CN(CC(=O)N[C@H]1CC[C@H](N)CC1)S(=O)(=O)c1ccc(-c2ccc(N)cc2)cc1` (relative stereo), the EC50 on human FSH receptor worked out at 15.2 µM; in the assay on Rat Granulosa Cell, 0.17 µM.

Consider `COc1ccccc1CN(CC(=O)N[C@H]1CC[C@H](N)CC1)S(=O)(=O)c1ccc(-c2cccc(OC)c2OC)cc1` (relative stereo), for which the results for the EC50 on human FSH receptor and with Rat Granulosa Cell were 12.9 µM and 0.57 µM, respectively. Consider `COc1ccccc1CN(CC(=O)N[C@H]1CC[C@H](N)CC1)S(=O)(=O)c1ccc(-c2cccc3ccccc23)cc1` (relative stereo), for which the results for the EC50 at human FSH receptor and in the assay on Rat Granulosa Cell were 7.06 µM and 25.2 µM, respectively. In the case of `COc1ccccc1CN(CC(=O)N[C@H]1CC[C@H](N)CC1)S(=O)(=O)c1ccc(-c2ccccc2)cc1` (relative stereo), the EC50 on human FSH receptor came to 12.3 µM; with Rat Granulosa Cell, 2.64 µM. `COc1ccccc1CN(CC(=O)N[C@H]1CC[C@H](N)CC1)S(=O)(=O)c1ccc(-c2ccccc2Cl)cc1` (relative stereo): the half-maximal effective concentration (EC50) at human FSH receptor worked out at 5.09 µM; with Rat Granulosa Cell, 0.12 µM. As for `COc1ccccc1CN(CC(=O)N[C@H]1CC[C@H](N)CC1)S(=O)(=O)c1ccc(-c2ccccc2OC)cc1` (relative stereo), the EC50 was determined as 10.2 µM on human FSH receptor and 0.94 µM in the assay on Rat Granulosa Cell. `COc1ccccc1CN(CC(=O)N[C@H]1CC[C@H](N)CC1)S(=O)(=O)c1ccc(-c2cccnc2)cc1` (relative stereo): the results for the 50% effective concentration (EC50) on human FSH receptor and in the assay with Rat Granulosa Cell were 4.5 µM and 0.12 µM, respectively.

Turning to `COc1ccccc1CN(CC(=O)N[C@H]1CC[C@H](N)CC1)S(=O)(=O)c1ccc(-c2cccs2)cc1` (relative stereo), the EC50 is at least 50 µM on human FSH receptor and 7.66 µM in the assay on Rat Granulosa Cell. Consider `COc1ccccc1CN(CC(=O)N[C@H]1CC[C@H](N)CC1)S(=O)(=O)c1ccc(-c2ccncc2)cc1` (relative stereo), for which the concentration for a half-maximal effect (EC50) at human FSH receptor worked out at 13.2 µM; in the assay with Rat Granulosa Cell, 0.4 µM. `COc1ccccc1CN(CC(=O)N[C@H]1CC[C@H](N)CC1)S(=O)(=O)c1ccc(-c2ccsc2)cc1` (relative stereo): the EC50 came to 5.09 µM on human FSH receptor and 0.2 µM with Rat Granulosa Cell. For the molecule `COc1ccccc1CCN(CC(=O)NCc1ccc(CN)cc1)S(=O)(=O)c1cccc(-c2ccc(C#N)cc2)c1` [262], on human FSH receptor, the concentration giving a half-maximal response (EC50) amounted to 2.46 µM.

These data come from patent US6583179B2, “Substituted aminoalkylamide derivatives as antagonists of follicle stimulating hormone” (Ortho-McNeil Pharmaceutical, Inc., priority 1999, dated 2003).
